Source: the supplement of paper PMC10849652
This is one part of the list.

Protein sequences, listed by entry. Tags and fused reporters are not part of them. Lines headed by an entry give the natural chain unless they say otherwise; changes in a name come on top.
UniProt P42785: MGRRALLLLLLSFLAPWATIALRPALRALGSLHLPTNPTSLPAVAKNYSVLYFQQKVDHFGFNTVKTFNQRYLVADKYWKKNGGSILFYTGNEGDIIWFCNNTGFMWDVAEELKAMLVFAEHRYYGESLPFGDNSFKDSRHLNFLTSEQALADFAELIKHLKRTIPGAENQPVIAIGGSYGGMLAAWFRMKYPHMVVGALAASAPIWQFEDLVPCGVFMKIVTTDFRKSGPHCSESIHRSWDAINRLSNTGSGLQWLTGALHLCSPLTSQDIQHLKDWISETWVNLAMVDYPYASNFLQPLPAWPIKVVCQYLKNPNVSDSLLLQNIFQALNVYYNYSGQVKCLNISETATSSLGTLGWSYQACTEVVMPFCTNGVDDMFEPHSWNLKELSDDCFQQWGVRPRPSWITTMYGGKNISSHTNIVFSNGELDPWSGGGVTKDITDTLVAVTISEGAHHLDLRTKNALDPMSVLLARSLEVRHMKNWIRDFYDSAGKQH
UniProt Q14738, whole entry, looked up: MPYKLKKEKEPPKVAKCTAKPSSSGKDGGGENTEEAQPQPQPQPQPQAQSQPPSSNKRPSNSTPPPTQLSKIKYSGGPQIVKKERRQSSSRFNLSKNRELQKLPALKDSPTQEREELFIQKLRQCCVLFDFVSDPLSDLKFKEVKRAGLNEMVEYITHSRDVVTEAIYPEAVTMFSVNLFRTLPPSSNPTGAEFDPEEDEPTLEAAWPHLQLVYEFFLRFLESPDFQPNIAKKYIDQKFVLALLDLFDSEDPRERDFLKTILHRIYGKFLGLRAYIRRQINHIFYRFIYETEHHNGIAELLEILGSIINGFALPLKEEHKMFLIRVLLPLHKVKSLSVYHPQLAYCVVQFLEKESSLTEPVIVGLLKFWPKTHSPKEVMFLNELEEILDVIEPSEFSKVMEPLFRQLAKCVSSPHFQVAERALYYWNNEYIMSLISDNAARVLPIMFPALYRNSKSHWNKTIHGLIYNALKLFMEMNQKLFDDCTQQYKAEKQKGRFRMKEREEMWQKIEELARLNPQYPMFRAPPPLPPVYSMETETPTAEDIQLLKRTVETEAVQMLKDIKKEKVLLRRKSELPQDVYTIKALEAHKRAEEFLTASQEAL
UniProt P63098, whole entry, looked up: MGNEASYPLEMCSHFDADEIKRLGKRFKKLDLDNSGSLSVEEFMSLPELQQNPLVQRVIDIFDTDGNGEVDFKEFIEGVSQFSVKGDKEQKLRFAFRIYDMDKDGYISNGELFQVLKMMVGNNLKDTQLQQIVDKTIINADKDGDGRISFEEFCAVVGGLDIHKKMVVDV
UniProt P60510: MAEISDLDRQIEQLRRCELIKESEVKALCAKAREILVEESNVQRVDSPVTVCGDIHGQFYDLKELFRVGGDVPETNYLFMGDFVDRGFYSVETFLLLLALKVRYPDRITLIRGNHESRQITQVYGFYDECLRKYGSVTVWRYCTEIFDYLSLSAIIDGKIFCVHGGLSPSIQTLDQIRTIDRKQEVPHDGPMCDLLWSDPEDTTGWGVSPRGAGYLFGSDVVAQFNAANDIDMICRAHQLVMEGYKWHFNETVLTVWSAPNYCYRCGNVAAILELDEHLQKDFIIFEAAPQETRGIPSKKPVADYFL
UniProt P30154, whole entry, looked up: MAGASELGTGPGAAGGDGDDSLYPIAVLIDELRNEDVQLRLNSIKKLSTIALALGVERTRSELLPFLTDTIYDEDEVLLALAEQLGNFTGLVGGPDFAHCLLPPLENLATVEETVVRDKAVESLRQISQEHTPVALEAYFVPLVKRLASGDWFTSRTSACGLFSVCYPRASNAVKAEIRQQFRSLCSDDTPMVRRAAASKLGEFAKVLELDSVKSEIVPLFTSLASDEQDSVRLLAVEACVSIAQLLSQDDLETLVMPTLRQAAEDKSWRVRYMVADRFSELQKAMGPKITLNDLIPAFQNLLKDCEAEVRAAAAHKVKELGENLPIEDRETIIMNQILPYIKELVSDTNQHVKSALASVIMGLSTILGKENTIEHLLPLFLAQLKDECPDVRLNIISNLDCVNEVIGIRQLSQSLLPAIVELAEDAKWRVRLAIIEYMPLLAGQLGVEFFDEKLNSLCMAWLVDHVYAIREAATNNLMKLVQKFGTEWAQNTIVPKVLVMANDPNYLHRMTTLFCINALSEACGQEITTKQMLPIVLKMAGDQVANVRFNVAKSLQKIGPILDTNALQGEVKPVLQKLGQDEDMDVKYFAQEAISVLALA
UniProt O00743: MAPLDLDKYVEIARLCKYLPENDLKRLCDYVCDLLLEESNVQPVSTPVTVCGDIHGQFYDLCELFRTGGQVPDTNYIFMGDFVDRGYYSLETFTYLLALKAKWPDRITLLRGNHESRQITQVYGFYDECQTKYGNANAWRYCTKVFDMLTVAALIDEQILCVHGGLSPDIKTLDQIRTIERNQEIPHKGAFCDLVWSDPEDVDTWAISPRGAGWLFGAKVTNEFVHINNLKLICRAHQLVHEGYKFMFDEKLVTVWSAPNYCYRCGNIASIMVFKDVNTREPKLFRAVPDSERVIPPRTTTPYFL
UniProt Q6P2P2: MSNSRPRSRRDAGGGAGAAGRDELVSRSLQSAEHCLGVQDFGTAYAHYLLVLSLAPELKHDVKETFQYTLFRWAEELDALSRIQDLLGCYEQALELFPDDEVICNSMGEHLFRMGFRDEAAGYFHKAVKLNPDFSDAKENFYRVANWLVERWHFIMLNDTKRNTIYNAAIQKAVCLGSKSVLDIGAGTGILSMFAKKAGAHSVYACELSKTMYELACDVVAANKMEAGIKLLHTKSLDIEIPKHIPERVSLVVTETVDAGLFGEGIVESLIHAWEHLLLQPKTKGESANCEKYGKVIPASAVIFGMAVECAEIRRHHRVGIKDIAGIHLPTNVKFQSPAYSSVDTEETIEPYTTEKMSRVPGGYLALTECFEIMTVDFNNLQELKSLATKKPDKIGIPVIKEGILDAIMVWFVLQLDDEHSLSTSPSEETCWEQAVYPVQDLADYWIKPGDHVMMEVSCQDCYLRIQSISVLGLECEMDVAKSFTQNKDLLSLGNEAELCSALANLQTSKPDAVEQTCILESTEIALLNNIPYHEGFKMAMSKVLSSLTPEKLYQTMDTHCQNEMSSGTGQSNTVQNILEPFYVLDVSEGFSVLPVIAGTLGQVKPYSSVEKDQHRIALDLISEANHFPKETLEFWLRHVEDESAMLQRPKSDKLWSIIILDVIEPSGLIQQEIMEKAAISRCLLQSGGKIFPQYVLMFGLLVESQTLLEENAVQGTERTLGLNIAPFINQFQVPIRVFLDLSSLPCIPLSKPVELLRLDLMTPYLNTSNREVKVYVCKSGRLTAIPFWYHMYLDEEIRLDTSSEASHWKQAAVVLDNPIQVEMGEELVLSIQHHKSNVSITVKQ
UniProt Q13362, whole entry, looked up: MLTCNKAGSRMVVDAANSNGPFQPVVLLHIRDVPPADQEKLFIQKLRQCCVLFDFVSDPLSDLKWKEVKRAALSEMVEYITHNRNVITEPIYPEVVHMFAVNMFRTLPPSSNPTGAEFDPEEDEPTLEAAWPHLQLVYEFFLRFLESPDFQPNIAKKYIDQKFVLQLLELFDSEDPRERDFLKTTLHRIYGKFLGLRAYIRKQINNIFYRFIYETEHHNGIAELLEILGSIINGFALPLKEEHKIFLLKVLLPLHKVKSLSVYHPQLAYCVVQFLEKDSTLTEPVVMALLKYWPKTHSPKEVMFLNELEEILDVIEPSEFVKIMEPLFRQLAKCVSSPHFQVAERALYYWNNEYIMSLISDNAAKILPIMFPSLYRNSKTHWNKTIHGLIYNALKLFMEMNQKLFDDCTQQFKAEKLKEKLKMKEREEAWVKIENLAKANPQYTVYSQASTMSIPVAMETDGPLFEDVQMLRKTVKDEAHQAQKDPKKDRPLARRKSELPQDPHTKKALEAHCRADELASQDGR
UniProt P14314: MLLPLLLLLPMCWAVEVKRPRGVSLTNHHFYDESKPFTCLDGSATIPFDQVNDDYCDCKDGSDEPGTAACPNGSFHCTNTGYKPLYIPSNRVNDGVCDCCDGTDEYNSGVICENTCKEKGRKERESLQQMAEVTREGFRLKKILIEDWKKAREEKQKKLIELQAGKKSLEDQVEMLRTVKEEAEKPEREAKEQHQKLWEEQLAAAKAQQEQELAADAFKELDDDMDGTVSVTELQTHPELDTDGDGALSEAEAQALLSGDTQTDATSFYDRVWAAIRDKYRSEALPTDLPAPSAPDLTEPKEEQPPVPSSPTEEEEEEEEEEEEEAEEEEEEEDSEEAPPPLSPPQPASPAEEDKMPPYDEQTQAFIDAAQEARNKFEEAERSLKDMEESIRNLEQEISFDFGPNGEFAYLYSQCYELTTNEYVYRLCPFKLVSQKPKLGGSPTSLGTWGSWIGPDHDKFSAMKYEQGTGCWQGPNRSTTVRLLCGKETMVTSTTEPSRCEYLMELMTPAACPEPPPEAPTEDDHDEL
UniProt P48634: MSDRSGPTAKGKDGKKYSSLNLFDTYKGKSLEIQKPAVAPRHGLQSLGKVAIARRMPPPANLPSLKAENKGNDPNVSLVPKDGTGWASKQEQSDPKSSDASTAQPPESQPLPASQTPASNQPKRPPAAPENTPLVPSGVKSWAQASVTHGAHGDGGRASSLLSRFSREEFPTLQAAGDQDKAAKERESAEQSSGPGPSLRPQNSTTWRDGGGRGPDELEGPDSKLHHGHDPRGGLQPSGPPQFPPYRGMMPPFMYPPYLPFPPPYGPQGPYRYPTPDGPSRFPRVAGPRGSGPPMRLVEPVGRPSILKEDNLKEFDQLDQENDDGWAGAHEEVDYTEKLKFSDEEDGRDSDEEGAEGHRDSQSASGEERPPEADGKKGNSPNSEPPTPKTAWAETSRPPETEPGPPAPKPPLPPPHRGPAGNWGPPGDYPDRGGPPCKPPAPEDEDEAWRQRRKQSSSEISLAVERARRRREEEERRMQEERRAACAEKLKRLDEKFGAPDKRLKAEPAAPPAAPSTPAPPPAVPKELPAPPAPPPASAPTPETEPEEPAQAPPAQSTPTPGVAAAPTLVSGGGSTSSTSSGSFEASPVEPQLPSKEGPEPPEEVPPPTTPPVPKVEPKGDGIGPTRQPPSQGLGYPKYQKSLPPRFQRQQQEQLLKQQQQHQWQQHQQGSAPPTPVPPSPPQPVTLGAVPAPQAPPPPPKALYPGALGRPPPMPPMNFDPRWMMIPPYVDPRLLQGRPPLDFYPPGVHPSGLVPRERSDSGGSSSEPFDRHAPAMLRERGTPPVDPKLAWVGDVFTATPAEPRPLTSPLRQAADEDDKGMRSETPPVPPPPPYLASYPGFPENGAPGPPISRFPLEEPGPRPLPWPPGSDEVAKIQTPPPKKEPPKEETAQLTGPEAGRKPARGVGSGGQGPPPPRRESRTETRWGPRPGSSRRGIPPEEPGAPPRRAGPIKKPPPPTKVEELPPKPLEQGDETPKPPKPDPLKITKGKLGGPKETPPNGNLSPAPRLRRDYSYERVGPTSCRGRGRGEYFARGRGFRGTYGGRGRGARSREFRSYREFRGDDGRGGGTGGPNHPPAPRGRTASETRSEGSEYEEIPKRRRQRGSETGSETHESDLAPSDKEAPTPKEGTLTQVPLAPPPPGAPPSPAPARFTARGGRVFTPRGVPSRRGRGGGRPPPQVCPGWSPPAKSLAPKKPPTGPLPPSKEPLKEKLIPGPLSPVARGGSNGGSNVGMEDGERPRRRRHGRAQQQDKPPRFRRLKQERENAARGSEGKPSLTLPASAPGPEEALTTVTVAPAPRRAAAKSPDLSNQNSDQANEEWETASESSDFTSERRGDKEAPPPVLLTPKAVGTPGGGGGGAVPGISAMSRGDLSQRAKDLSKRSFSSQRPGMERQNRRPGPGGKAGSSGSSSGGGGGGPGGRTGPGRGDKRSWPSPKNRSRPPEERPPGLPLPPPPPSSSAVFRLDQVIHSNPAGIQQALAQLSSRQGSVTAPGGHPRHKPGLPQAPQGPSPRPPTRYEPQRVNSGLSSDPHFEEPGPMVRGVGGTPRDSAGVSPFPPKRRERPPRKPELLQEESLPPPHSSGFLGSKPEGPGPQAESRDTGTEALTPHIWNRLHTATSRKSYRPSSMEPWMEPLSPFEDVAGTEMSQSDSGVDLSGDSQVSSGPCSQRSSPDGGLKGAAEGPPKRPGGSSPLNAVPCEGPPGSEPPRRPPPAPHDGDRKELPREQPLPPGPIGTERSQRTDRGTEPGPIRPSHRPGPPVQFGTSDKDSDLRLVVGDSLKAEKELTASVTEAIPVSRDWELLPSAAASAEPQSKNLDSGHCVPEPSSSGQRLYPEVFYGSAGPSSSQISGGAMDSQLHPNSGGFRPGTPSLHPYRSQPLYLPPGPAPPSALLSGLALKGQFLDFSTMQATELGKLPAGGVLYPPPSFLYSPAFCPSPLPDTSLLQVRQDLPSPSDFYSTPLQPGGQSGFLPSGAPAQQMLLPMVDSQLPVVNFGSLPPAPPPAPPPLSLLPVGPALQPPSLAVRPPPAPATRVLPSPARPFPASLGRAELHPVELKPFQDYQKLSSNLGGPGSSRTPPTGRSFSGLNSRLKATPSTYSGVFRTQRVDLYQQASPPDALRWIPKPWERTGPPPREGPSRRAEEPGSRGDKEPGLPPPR

Experiments:
Assay in all cases: log2 fold change, soluble protein after heating vs DMSO (PISA); higher = thermal stabilisation; K562 cells, 10 uM, 30 min; active = over 0.2 and 3.5 SD of the protein, either way, in both replicates (recomputed)
[1] = compound: COC1=CC=C(C=C1)CN2C=CC3=C2C=C(C=C3)C(=O)NO
Outline: (§1)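 K562 cells at 2×10^6 cells/mL were given 10 μM compound for 30 min. Aliquots then went through 3 min of heating across 48°C-58°C, were pooled, and were extracted in PBS with 0.5% NP-40 at 4°C, and the supernatant after 21,000xg for 90 min was quantified by TMTpro 16plex LC-MS/MS with channel sums equalised. Thermal stability relative to control samples, from duplicates, is given as log2 fold change.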

filanesib = compound: CON(C)C(=O)N1N=C(c2cc(F)ccc2F)S[C@@]1(CCCN)c1ccccc1 [filanesib]
Outline: as §1

zotarolimus = compound: CO[C@H]1C[C@@H]2CC[C@@H](C)[C@@](O)(O2)C(=O)C(=O)N2CCCC[C@H]2C(=O)O[C@H]([C@H](C)C[C@@H]2CC[C@H](n3cnnn3)[C@H](OC)C2)CC(=O)[C@H](C)/C=C(\C)[C@@H](O)[C@@H](OC)C(=O)[C@H](C)C[C@H](C)/C=C/C=C/C=C/1C [zotarolimus]
Outline: as §1

idasanutlin = compound: COc1cc(C(=O)O)ccc1NC(=O)[C@@H]1N[C@@H](CC(C)(C)C)[C@](C#N)(c2ccc(Cl)cc2F)[C@H]1c1cccc(Cl)c1F [idasanutlin]
Outline: as §1

alisertib = compound: COc1cc(Nc2ncc3c(n2)-c2ccc(Cl)cc2C(c2c(F)cccc2OC)=NC3)ccc1C(=O)O [alisertib]
Outline: as §1

[2] = compound: COc1cc2nc(-c3cc(F)ccc3O)nc(N[C@@H]3CNC[C@H]3C(C)(C)O)c2cc1OC
Outline: as §1

gefitinib = compound: COc1cc2ncnc(Nc3ccc(F)c(Cl)c3)c2cc1OCCCN1CCOCC1 [gefitinib]
Outline: as §1

[3] = compound: COc1cccc2cc(-c3nc([C@H]4CC[C@H](C(=O)O)CC4)n4ncnc(N)c34)[nH]c12
Outline: as §1

lapatinib = compound: CS(=O)(=O)CCNCc1ccc(-c2ccc3ncnc(Nc4ccc(OCc5cccc(F)c5)c(Cl)c4)c3c2)o1 [lapatinib]
Outline: as §1

pictilisib = compound: CS(=O)(=O)N1CCN(Cc2cc3nc(-c4cccc5[nH]ncc45)nc(N4CCOCC4)c3s2)CC1 [pictilisib]
Outline: as §1

Row | Target | log2 fold change [1] | log2 fold change (filanesib) | log2 fold change (zotarolimus) | log2 fold change (idasanutlin) | log2 fold change (alisertib) | log2 fold change [2] | log2 fold change (gefitinib) | log2 fold change [3] | log2 fold change (lapatinib) | log2 fold change (pictilisib)
1 | PRDX1 (UniProt Q06830) | inactive: -0.029 | inactive: -0.061 | inactive: 0 | inactive: -0.015 | inactive: -0.012 | inactive: -0.016 | inactive: -0.006 | inactive: 0.057 | inactive: 0.025 | inactive: 0.066
2 | PRCP (UniProt P42785) | inactive: 0.009 | inactive: -0.038 | inactive: -0.007 | inactive: -0.055 | inactive: -0.013 | inactive: -0.074 | inactive: 0.029 | inactive: 0.065 | inactive: -0.014 | inactive: 0.019
3 | PPP2R5D (UniProt Q14738) | inactive: 0.073 | inactive: -0.078 | inactive: 0.091 | inactive: -0.084 | inactive: 0.029 | inactive: 0.008 | inactive: -0.005 | inactive: -0.005 | inactive: 0.109 | inactive: 0.005
4 | PPP3R1 (UniProt P63098) | inactive: -0.005 | inactive: -0.17 | inactive: -0.022 | inactive: -0.037 | inactive: -0.005 | inactive: -0.019 | inactive: -0.022 | inactive: 0.004 | inactive: 0.004 | inactive: 0.005
5 | PRKCB isoform 2 (UniProt P05771) | inactive: -0.011 | inactive: -0.022 | inactive: 0.046 | inactive: -0.028 | inactive: -0.051 | inactive: 0.035 | inactive: 0.001 | inactive: -0.036 | inactive: -0.008 | inactive: 0.035
6 | PPP4R3B (UniProt Q5MIZ7) | inactive: -0.01 | inactive: -0.004 | inactive: 0.014 | inactive: -0.039 | inactive: 0.048 | inactive: 0 | inactive: -0.034 | inactive: -0.034 | inactive: 0.047 | inactive: 0.076
7 | PPWD1 (UniProt Q96BP3) | inactive: 0.05 | inactive: -0.059 | inactive: -0.003 | inactive: -0.033 | inactive: -0.026 | inactive: 0.071 | inactive: 0 | inactive: 0.005 | inactive: -0.022 | inactive: 0.044
8 | PREPL (UniProt Q4J6C6) | inactive: -0.043 | inactive: -0.005 | inactive: -0.06 | inactive: -0.024 | inactive: -0.03 | inactive: 0.034 | inactive: 0.01 | inactive: 0.072 | inactive: 0.018 | inactive: 0.062
9 | PRPF38A (UniProt Q8NAV1) | inactive: -0.113 | inactive: 0.046 | inactive: -0.014 | inactive: 0.035 | inactive: -0.033 | inactive: 0.041 | inactive: 0.009 | inactive: 0.002 | inactive: -0.035 | inactive: 0.085
10 | PPP4C (UniProt P60510) | inactive: -0.173 | inactive: 0.019 | inactive: 0.015 | inactive: -0.037 | inactive: -0.129 | inactive: 0.013 | inactive: -0.026 | inactive: 0.093 | inactive: -0.033 | inactive: 0.011
11 | PPP4R3A (UniProt Q6IN85) | inactive: -0.036 | inactive: 0.029 | inactive: 0.018 | inactive: -0.086 | inactive: -0.027 | inactive: 0.024 | inactive: 0.006 | inactive: 0.097 | inactive: 0.12 | inactive: -0.028
12 | PRPF4B (UniProt Q13523) | inactive: -0.024 | inactive: 0.253 | inactive: 0.187 | inactive: 0.164 | inactive: -0.047 | inactive: -0.1 | inactive: -0.023 | inactive: 0.003 | inactive: 0.19 | inactive: 0.097
13 | PPP2R1B isoform 2 (UniProt P30154) | inactive: 0.078 | inactive: -0.103 | inactive: 0.013 | inactive: -0.02 | inactive: -0.092 | inactive: -0.05 | inactive: 0.033 | inactive: -0.019 | inactive: -0.015 | inactive: 0.111
14 | PRPSAP2 (UniProt O60256) | inactive: -0.168 | inactive: 0.084 | inactive: 0.029 | inactive: 0.012 | inactive: -0.078 | inactive: 0.011 | inactive: -0.022 | inactive: 0.025 | inactive: -0.011 | active: -0.233
15 | PPP1R10 (UniProt Q96QC0) | inactive: -0.114 | inactive: 0.367 | inactive: -0.04 | inactive: 0.173 | inactive: -0.109 | inactive: 0.072 | inactive: -0.054 | inactive: -0.066 | inactive: 0.091 | inactive: -0.04
16 | PRRC2C isoform 7 (UniProt Q9Y520) | inactive: -0.065 | inactive: 0.226 | inactive: -0.028 | inactive: 0.108 | inactive: -0.08 | inactive: -0.005 | inactive: -0.007 | inactive: -0.062 | inactive: 0.058 | inactive: -0.02
17 | PPP2CA (UniProt P67775) | inactive: -0.016 | inactive: 0.008 | inactive: 0.01 | inactive: -0.037 | inactive: -0.029 | inactive: -0.019 | inactive: -0.008 | inactive: 0.001 | inactive: -0.019 | inactive: -0.015
18 | PPP6C isoform 3 (UniProt O00743) | inactive: -0.071 | inactive: -0.022 | inactive: 0.015 | inactive: -0.005 | inactive: -0.04 | inactive: -0.006 | inactive: 0.001 | inactive: 0.036 | inactive: -0.011 | inactive: 0.02
19 | PPOX (UniProt P50336) | inactive: 0.324 | inactive: -0.226 | inactive: 0.352 | active: 0.574 | inactive: 0.033 | inactive: -0.178 | inactive: 0.116 | inactive: 0.021 | inactive: 0.471 | inactive: 0.475
20 | PPP5C (UniProt P53041) | inactive: -0.027 | inactive: 0.008 | inactive: 0.018 | inactive: -0.022 | inactive: -0.052 | inactive: 0.034 | inactive: -0.021 | inactive: 0.079 | inactive: 0.001 | inactive: 0.008
21 | PRMT9 (UniProt Q6P2P2) | inactive: -0.09 | inactive: -0.122 | inactive: 0.018 | inactive: -0.049 | inactive: 0.001 | inactive: 0.115 | inactive: 0.044 | inactive: 0.055 | inactive: 0.013 | inactive: 0.124
22 | PPP2R5C isoform 4 (UniProt Q13362) | inactive: 0.125 | inactive: -0.018 | inactive: -0.019 | inactive: 0.017 | inactive: 0.031 | inactive: 0.155 | inactive: -0.004 | inactive: 0.002 | inactive: 0.053 | inactive: 0.021
23 | PRKAG1 isoform 3 (UniProt P54619) | inactive: -0.02 | inactive: -0.036 | inactive: 0 | inactive: -0.004 | inactive: 0.022 | inactive: 0.008 | inactive: 0.002 | inactive: 0.049 | inactive: -0.055 | inactive: -0.037
24 | PRPS1 (UniProt P60891) | inactive: -0.055 | inactive: 0.044 | inactive: -0.003 | inactive: -0.016 | inactive: -0.107 | inactive: 0.102 | inactive: -0.072 | inactive: 0.05 | inactive: -0.023 | inactive: 0.176
25 | PRKCSH (UniProt P14314) | inactive: 0.091 | inactive: -0.272 | inactive: 0.068 | inactive: 0.037 | inactive: -0.049 | inactive: 0.009 | inactive: 0.001 | inactive: 0.028 | inactive: -0.01 | inactive: -0.064
26 | PRRC2A (UniProt P48634) | inactive: -0.079 | inactive: 0.253 | inactive: 0.002 | inactive: 0.102 | inactive: -0.022 | inactive: -0.033 | inactive: 0.004 | inactive: -0.018 | inactive: 0.058 | inactive: 0.014
27 | PPP3CA (UniProt Q08209) | inactive: -0.059 | inactive: 0.051 | inactive: -0.031 | inactive: -0.063 | inactive: 0.006 | inactive: -0.047 | inactive: 0.042 | inactive: -0.032 | inactive: 0.051 | inactive: 0.033
28 | PRPF8 (UniProt Q6P2Q9) | inactive: -0.01 | inactive: 0.198 | inactive: -0.003 | inactive: 0.075 | inactive: -0.026 | inactive: 0.081 | inactive: -0.065 | inactive: -0.049 | inactive: 0.043 | inactive: -0.04

Laid out differently: entries from further up.
Row,Target,log2 fold change [1],log2 fold change (filanesib),log2 fold change (zotarolimus),log2 fold change (idasanutlin),log2 fold change (alisertib),log2 fold change [2],log2 fold change (gefitinib),log2 fold change [3],log2 fold change (lapatinib),log2 fold change (pictilisib)
14,PRPSAP2 (UniProt O60256),inactive: -0.168,inactive: 0.084,inactive: 0.029,inactive: 0.012,inactive: -0.078,inactive: 0.011,inactive: -0.022,inactive: 0.025,inactive: -0.011,active: -0.233
15,PPP1R10 (UniProt Q96QC0),inactive: -0.114,inactive: 0.367,inactive: -0.04,inactive: 0.173,inactive: -0.109,inactive: 0.072,inactive: -0.054,inactive: -0.066,inactive: 0.091,inactive: -0.04
